Patent US20140193405A1
No constants are given. Whether binding was seen depends on the method and setting. Some entries that bind do so weakly or less than the wild type.

By UniProt entry, the sequences of proteins in these tests, tags left out. Residues count along the entry.
UniProt P25942, residues 21-193: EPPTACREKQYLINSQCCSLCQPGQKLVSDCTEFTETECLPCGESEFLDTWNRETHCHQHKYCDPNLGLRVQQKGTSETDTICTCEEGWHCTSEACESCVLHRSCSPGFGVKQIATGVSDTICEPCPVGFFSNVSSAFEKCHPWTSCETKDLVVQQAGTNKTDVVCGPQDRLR

B1: hu sgn-14 (antibody, V domains shown)
VH: EVQLVESGGGLVQPGGSLRLSCAASGYSFTGYYIHWVRQAPGKGLEWVARVIPNNGGTSYNQKFKGRFTLSVDNSKNTAYLQMNSLRAEDTAVYYCAREGIYWWGQGTLVTVS
VL: DIQMTQSPSSLSASVGDRVTITCRSSQSLVHSNGNTFLHWYQQKPGKAPKLLIYTVSNRFSGVPSRFSGSGSGTDFTLTISSLQPEDFATYYCSQTTHVPWTFGQGTKVEIKR
B2: hu sgn-26 (antibody, V domains shown)
VH: EVQLVESGGGLVQPGGSLRLSCAASGYSFTGYYIHWVRQAPGKGLEWVARVIPNAGGTSYNQKFKGRFTLSVDNSKNTAYLQMNSLRAEDTAVYYCAREGIYWWGQGTLVTVS
VL: DIQMTQSPSSLSASVGDRVTITCRSSQSLVHSNGNTFLHWYQQKPGKAPKLLIYTVSNRFSGVPSRFSGSGSGTDFTLTISSLQPEDFATYFCSQTTHVPWTFGQGTKVEIKR
B3: hu sgn-22 (antibody, V domains shown)
VH: EVQLVESGGGLVQPGGSLRLSCAASGYSFTGYYIHWVRQAPGKGLEWVARVIPNAGGTSYNQKFKGRFTLSVDNSKNTAYLQMNSLRAEDTAVYYCAREGIYWWGQGTLVTVS
VL: DIQMTQSPSSLSASVGDRVTITCRSSQSLVHSNGNTFLHWYQQKPGKAPKLLIYTVSNRFSGVPSRFSGSGSGTDFTLTISSLQPEDFATYYCSQTTHVPWTFGQGTKVEIKR
B4: hu sgn-18 (antibody, V domains shown)
VH: EVQLVESGGGLVQPGGSLRLSCAASGYSFTGYYIHWVRQAPGKGLEWVARVIPNNGGTSYNQKFKGRATLSVDNSKNTAYLQMNSLRAEDTAVYYCAREGIYWWGQGTLVTVS
VL: DIQMTQSPSSLSASVGDRVTITCRSSQSLVHSNGNTFLHWYQQKPGKAPKLLIYTVSNRFSGVPSRFSGSGSGTDFTLTISSLQPEDFATYFCSQTTHVPWTFGQGTKVEIKR
B5: hu sgn-27 (antibody, V domains shown)
VH: EVQLVESGGGLVQPGGSLRLSCAASGYSFTGYYIHWVRQAPGKGLEWVARVIPNQGGTSYNQKFKGRFTLSVDNSKNTAYLQMNSLRAEDTAVYYCAREGIYWWGQGTLVTVS
VL: DIQMTQSPSSLSASVGDRVTITCRSSQSLVHSNGNTFLHWYQQKPGKAPKLLIYTVSNRFSGVPSRFSGSGSGTDFTLTISSLQPEDFATYFCSQTTHVPWTFGQGTKVEIKR
B6: hu sgn-19 (antibody, V domains shown)
VH: EVQLVESGGGLVQPGGSLRLSCAASGYSFTGYYIHWVRQAPGKGLEWVARVIPNNGGTSYNQKFKGRFTLSVDNSKNTAYLQMNSLRAEDTAVYYCAREGIYWWGQGTLVTVS
VL: DIQMTQSPSSLSASVGDRVTITCRSSQSLVHSNGNTFLHWYQQKPGKAPKLLIYTVSNRFSGVPSRFSGSGSGTDFTLTISSLQPEDFATYFCSQTTHVPWTFGQGTKVEIKR
B7: hu sgn-23 (antibody, V domains shown)
VH: EVQLVESGGGLVQPGGSLRLSCAASGYSFTGYYIHWVRQAPGKGLEWVARVIPNQGGTSYNQKFKGRFTLSVDNSKNTAYLQMNSLRAEDTAVYYCAREGIYWWGQGTLVTVS
VL: DIQMTQSPSSLSASVGDRVTITCRSSQSLVHSNGNTFLHWYQQKPGKAPKLLIYTVSNRFSGVPSRFSGSGSGTDFTLTISSLQPEDFATYYCSQTTHVPWTFGQGTKVEIKR

Target: CD40 (UniProt P25942)
Assay: binding of serially diluted antibody to CD40 immobilised on microassay plates

binding, binds:
B1
B2
B3
B4
B5
B6
B7
